For three substances, binding results are on record in paper PMC4737497.

Amino acid sequences for entries named in this document (tags omitted).
UniProt Q9Y297, whole entry: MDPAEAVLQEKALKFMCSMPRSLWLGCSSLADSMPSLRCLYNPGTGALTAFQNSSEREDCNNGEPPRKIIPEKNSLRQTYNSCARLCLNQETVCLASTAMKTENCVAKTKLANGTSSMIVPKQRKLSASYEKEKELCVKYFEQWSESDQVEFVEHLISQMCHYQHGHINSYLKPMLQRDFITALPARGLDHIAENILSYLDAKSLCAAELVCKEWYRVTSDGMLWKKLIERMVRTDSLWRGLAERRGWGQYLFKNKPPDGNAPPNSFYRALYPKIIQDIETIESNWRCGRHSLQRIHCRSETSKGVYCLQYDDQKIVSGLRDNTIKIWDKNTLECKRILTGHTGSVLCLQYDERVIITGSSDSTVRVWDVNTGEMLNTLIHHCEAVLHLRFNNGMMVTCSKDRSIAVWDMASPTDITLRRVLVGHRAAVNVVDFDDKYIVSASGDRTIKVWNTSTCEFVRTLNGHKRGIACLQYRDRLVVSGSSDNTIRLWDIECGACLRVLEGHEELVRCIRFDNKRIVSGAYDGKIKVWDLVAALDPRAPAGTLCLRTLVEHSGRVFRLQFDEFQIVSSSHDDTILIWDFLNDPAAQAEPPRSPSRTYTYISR
UniProt Q9UKB1, whole entry: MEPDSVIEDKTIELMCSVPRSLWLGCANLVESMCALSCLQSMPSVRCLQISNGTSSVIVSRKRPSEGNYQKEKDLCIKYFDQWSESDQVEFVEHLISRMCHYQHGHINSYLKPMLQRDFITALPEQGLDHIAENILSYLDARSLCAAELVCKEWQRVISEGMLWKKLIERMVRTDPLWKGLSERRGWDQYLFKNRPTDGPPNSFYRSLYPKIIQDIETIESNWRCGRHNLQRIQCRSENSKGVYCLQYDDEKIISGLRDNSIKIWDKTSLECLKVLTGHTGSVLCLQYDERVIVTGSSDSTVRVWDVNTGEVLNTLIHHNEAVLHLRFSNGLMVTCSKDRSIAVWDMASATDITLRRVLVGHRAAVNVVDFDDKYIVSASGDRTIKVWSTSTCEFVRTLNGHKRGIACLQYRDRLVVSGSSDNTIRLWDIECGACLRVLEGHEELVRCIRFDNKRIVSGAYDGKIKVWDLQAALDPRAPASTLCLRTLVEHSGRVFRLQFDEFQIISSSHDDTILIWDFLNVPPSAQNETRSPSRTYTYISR
UniProt Q13619, whole entry: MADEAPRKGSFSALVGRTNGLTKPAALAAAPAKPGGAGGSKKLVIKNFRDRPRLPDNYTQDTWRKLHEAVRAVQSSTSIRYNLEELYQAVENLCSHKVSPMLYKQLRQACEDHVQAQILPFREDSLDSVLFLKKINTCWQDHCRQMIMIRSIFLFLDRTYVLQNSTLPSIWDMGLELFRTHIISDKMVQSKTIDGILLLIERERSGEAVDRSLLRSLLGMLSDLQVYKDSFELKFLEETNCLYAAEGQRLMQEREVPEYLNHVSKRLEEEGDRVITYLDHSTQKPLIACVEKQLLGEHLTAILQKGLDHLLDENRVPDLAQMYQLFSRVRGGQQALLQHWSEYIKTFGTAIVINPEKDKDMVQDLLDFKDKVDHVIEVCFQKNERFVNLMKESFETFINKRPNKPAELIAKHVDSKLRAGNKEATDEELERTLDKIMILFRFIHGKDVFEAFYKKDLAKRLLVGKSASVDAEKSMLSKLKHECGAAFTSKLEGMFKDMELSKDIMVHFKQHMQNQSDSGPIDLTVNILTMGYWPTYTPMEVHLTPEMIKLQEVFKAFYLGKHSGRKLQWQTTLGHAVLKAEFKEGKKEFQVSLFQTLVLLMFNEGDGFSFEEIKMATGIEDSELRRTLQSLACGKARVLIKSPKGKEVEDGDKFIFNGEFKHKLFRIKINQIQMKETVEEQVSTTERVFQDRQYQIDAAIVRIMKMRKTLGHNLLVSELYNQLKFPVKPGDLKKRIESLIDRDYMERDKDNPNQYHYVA
UniProt Q13620, whole entry: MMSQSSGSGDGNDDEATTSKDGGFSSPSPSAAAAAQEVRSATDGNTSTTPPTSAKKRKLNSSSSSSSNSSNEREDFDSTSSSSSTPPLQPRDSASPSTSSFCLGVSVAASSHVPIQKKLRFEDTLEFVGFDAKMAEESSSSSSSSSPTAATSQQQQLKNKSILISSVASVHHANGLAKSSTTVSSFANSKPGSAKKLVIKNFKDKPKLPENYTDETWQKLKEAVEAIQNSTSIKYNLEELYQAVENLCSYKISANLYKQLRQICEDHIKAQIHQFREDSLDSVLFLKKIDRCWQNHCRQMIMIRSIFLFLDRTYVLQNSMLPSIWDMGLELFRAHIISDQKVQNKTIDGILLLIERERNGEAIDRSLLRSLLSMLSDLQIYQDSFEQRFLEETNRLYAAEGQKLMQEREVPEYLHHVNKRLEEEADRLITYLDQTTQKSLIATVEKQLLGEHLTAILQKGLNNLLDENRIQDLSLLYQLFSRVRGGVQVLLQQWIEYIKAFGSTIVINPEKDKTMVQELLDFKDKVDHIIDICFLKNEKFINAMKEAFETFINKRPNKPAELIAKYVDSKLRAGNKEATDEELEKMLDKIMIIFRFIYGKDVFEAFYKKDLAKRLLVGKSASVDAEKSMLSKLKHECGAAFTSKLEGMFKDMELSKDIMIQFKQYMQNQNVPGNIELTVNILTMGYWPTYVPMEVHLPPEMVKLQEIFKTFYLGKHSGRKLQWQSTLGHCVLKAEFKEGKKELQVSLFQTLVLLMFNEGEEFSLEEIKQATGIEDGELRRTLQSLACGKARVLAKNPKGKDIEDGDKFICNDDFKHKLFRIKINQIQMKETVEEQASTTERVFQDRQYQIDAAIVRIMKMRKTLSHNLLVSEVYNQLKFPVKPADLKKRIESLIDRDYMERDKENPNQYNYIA
UniProt Q14999, whole entry: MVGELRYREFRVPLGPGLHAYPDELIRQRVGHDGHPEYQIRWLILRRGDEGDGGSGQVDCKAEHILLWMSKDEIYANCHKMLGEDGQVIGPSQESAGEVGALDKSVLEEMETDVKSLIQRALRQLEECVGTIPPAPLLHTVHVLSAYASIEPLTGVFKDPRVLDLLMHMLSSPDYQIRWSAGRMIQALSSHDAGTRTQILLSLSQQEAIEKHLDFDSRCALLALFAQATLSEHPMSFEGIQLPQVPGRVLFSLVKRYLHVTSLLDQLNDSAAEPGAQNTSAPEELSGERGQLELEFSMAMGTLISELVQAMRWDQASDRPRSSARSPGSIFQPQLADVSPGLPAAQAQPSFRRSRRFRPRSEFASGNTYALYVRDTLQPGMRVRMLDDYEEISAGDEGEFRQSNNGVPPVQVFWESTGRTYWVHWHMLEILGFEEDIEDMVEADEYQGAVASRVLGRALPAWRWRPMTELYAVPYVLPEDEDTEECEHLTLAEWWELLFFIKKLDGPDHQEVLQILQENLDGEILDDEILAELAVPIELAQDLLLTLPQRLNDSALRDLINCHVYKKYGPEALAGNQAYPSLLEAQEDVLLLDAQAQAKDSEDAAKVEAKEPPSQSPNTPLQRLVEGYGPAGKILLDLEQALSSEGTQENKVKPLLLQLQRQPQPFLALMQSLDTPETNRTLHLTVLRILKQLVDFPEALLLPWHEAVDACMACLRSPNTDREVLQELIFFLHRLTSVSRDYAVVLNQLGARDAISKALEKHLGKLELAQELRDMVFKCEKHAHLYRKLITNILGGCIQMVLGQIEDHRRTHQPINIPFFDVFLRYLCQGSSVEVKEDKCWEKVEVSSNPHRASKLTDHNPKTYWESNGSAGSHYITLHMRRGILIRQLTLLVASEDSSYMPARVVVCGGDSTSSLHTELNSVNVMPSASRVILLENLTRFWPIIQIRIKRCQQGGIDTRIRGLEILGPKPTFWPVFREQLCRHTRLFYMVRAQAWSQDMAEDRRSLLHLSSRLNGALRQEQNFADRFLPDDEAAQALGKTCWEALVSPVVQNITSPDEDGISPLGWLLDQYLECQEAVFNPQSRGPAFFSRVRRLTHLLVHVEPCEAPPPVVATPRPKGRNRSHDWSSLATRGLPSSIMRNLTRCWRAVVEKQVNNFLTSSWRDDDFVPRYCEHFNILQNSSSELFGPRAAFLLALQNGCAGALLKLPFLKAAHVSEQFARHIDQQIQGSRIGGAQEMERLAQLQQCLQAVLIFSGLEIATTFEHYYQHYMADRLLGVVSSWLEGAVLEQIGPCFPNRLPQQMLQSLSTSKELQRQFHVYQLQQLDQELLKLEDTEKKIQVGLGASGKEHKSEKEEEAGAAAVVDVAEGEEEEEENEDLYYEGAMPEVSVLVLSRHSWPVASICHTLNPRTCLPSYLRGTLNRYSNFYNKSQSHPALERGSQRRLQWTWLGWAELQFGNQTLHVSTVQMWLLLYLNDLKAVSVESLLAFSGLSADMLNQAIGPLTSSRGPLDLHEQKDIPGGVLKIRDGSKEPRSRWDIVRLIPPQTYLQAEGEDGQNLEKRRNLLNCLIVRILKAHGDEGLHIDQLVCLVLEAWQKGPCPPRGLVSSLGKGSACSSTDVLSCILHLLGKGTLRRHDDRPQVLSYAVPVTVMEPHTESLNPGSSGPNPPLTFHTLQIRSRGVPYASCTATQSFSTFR
UniProt P19525, whole entry: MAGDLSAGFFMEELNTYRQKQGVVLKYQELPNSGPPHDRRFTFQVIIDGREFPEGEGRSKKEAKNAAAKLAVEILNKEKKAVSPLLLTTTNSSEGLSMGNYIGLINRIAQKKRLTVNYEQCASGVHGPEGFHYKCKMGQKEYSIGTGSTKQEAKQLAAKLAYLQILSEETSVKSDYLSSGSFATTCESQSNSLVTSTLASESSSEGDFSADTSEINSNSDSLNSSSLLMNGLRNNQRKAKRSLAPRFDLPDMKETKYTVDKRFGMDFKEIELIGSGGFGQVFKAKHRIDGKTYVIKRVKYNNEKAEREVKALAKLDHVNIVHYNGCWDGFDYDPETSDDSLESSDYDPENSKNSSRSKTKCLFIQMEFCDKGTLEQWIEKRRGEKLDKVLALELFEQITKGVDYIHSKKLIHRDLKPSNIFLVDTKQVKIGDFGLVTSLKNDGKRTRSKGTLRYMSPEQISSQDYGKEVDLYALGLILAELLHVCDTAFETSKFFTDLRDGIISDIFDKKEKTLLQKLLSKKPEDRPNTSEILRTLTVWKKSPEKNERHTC

What all share (assay): co-IP
In assay [1] the target is NSs protein of Rift Valley fever virus with a C-terminal V5 tag, expressed from recombinant MP-12 virus (rMP-12-NSs-V5) (Rift Valley fever virus, strain MP-12) (UniProt P21698).
Assay [2] addresses Flag-tagged wildtype BTRC (pcDNA3-Flag-BTRC-Wt) (UniProt Q9Y297).
Assay [3] concerns the target Flag-tagged wildtype FBXW11 (pcDNA3-Flag-FBXW11-Wt) (UniProt Q9UKB1).
For assay [4], the target named is HA-tagged CUL9 (HA2-PARC/CUL9) (UniProt Q8IWT3).
For assay [5], the target named is myc-tagged CUL3 (pcDNA3-myc3-CUL3) (UniProt Q13618).
The target of assay [6] is myc-tagged CUL4A (pcDNA3-myc3-CUL4A) (UniProt Q13619).
Assay [7] concerns the target myc-tagged CUL4B (pcDNA3-myc3-CUL4B) (UniProt Q13620).
For assay [8], the target named is myc-tagged CUL7 (pcDNA3-myc3-CUL7) (UniProt Q14999).

Results are given in words; binding and its absence hold for the method and conditions named. Binding seen in cells or lysates may run through a third protein. Some results given as binding are weak or reduced against the parent protein; the word gives no strength.

“double-stranded (ds) RNA-dependent protein kinase (PKR or EIF2AK2) (from UniProt P19525 1-551)”: the binding entry in assay [1] is listed as “binds”.

As to “HA-tagged FBXW11 (pcDNA3-HA-FBXW11) (from UniProt Q9UKB1 1-542)”, in assay [1], the binding result is reported as “binds”.

Regarding “NSs protein of Rift Valley fever virus with a C-terminal V5 tag, expressed from recombinant MP-12 virus (rMP-12-NSs-V5) (from UniProt P21698 1-265)”, the binding entry in assay [2] was “binds”; in assay [3] it was “binds”; in assay [4], “no binding”; in assay [5], “no binding”; in assay [6], “no binding”; in assay [7], “no binding”. In addition, the binding entry in assay [8] is listed as “no binding”.
